Laboratory results from patent publication US8039670B2, “Analogs of alpha galactosyceramide and uses thereof” (Ludwig Institute for Cancer Research, priority 2005, dated 2011).
For at least one compound, name, drawing or mass did not settle the structure.

Tested on: human DC
Assay: DC maturation in co-culture of human DC and iNKT cells (flow cytometry CD83, CD86, CD38)
Format: cell-based
Conditions: human DC with iNKT cell clone, 24 hours
Procedure: Different analogs of α-GalCer as indicated or LPS were added to co-cultures of human DC and iNKT cells. (A) Maturation of the DC was assessed after 40 h, gating on CD11c positive cells. Histograms indicate the CD83 and CD86 profiles of DC from different treatments; the percentages indicate the percentage of CD83hi mature DC and the numbers in parenthesis, the mean fluorescence intensity of the population contained within the labeled gate. DC and iNKT cells were co-cultured in the presence of different analogs of α-GalCer for 24 hours. Supernatants were analyzed using ELISA for the presence of (B) IL-12p40 released by the DC and (C) IFN-γ from the iNKT cells. […] Cells were co-cultured in the presence of the indicated concentration of analog and the percentages of DC with increased CD83/CD80 are shown. […] Viability of α-GalCer or analog-pulsed DC was assessed after 40 h co-culture in the presence of iNKT cells by flow cytometry. Cells were stained with propidium iodide and the percentage of live CD11c gated cells remaining in the culture are shown.
Human monocyte-derived DC were pulsed with 150 ng of different inositol analogs and co-cultured with iNKT cells for 24 h. […] Numbers indicate the mean fluorescence intensity of the histogram gated on CD11c^+ cells. […]

Row | SMILES | DC maturation (upregulation of CD83, CD86 and CD38)
1 | CCCCCCCCCCCCCCCCCCCCCCCCCC(=O)N[C@@H](COC[C@H](O)[C@@H](O)[C@H](O)c1ccccc1)[C@H](O)[C@H](O)CCCCCCCCCCCCCC [Compound 15, 4-(R)-Phenyl Threitol Ceramide] | do not seem to have affected their function
2 | CCCCCCCCCCCCCCCCCCCCCCCCCC(=O)N[C@@H](COC[C@H](O)[C@@H](O)[C@@H](O)c1ccccc1)[C@H](O)[C@H](O)CCCCCCCCCCCCCC [Compound 14, 4-(S)-Phenyl Threitol Ceramide] | do not seem to have affected their function
